# Some of the results follow.
# What was measured:
# Assay in all cases: glycan array binding signal (z-score within array); higher = stronger binding
# Settings in all cases: glycan notation: IUPAC condensed, linker removed
# [1] = target: Gal(a1-3)Gal(b1-4)GlcNAc(b1-2)Man
# How it was run: (§1)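 Glycan array binding is given as a within-array Z-score, which can be read as non-binding when negative. The arrays, 3228 of them, came from the Consortium for Functional Glycomics database and were retained only where the protein sequence was available. Z-scores were averaged across arrays of the same protein sequence at different concentrations or buffers and across linkers.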
# [2] = target: Gal(a1-3)Gal(b1-4)GlcNAc(b1-2)Man(a1-3)[Gal(a1-3)Gal(b1-4)GlcNAc(b1-2)Man(a1-6)]Man(b1-4)GlcNAc(b1-4)GlcNAc
# How it was run: as §1
# [3] = target: Gal(a1-3)Gal(b1-4)GlcNAc(b1-3)GalNAc
# How it was run: as §1
# [4] = target: Gal(a1-3)Gal(b1-4)GlcNAc(b1-6)GalNAc
# How it was run: as §1
# [5] = target: Gal(a1-3)Gal(b1-4)[Fuc(a1-3)]GlcNAc
# How it was run: as §1
# [6] = target: Gal(a1-3)Gal(b1-4)[Fuc(a1-3)]GlcNAc(b1-2)Man(a1-3)[Gal(a1-3)Gal(b1-4)[Fuc(a1-3)]GlcNAc(b1-2)Man(a1-6)]Man(b1-4)GlcNAc(b1-4)GlcNAc
# How it was run: as §1
# [7] = target: Gal(a1-3)GalNAc
# How it was run: as §1
# [8] = target: Gal(a1-3)[Gal(a1-4)]Gal(b1-4)GlcNAc
# How it was run: as §1
# [9] = target: Gal(a1-4)Gal(b1-3)GlcNAc(b1-2)Man(a1-3)[Gal(a1-4)Gal(b1-3)GlcNAc(b1-2)Man(a1-6)]Man(b1-4)GlcNAc(b1-4)GlcNAc
# How it was run: as §1
# [10] = target: Gal(a1-4)Gal(b1-4)Glc
# How it was run: as §1
# [11] = target: Gal(a1-4)Gal(b1-4)GlcNAc
# How it was run: as §1
# [12] = target: Gal(a1-4)Gal(b1-4)GlcNAc(b1-2)Man(a1-3)[Gal(a1-4)Gal(b1-4)GlcNAc(b1-2)Man(a1-6)]Man(b1-4)GlcNAc(b1-4)GlcNAc
# How it was run: as §1
# [13] = target: Gal(a1-4)Gal(b1-4)GlcNAc(b1-3)Gal(b1-4)Glc
# How it was run: as §1
# [14] = target: Gal(a1-4)GlcNAc
# How it was run: as §1
# [15] = target: Gal(a1-6)Glc
# How it was run: as §1
# [16] = target: Gal(b1-2)Gal
# How it was run: as §1
# [17] = target: Gal(b1-3)Gal
# How it was run: as §1
# [18] = target: Gal(b1-3)Gal(b1-4)GlcNAc
# How it was run: as §1
# [19] = target: Gal(b1-3)GalNAc
# How it was run: as §1
# [20] = target: Gal(b1-3)GalNAc(a1-3)[Fuc(a1-2)]Gal(b1-4)Glc
# How it was run: as §1
# [21] = target: Gal(b1-3)GalNAc(a1-3)[Fuc(a1-2)]Gal(b1-4)GlcNAc
# How it was run: as §1
# [22] = target: Gal(b1-3)GalNAc(b1-3)Gal
# How it was run: as §1
# [23] = target: Gal(b1-3)GalNAc(b1-3)Gal(a1-4)Gal(b1-4)Glc
# How it was run: as §1
# [24] = target: Gal(b1-3)GalNAc(b1-4)Gal(b1-4)Glc
# How it was run: as §1
# [25] = target: Gal(b1-3)GalNAc(b1-4)[Neu5Ac(a2-3)]Gal(b1-4)Glc
# How it was run: as §1
# [26] = target: Gal(b1-3)GlcNAc
# How it was run: as §1
# [27] = target: Gal(b1-3)GlcNAc(a1-3)Gal(b1-4)GlcNAc
# How it was run: as §1
# [28] = target: Gal(b1-3)GlcNAc(a1-6)Gal(b1-4)GlcNAc
# How it was run: as §1
# [29] = target: Gal(b1-3)GlcNAc(b1-2)Man
# How it was run: as §1
# [30] = target: Gal(b1-3)GlcNAc(b1-2)Man(a1-3)[Gal(b1-3)GlcNAc(b1-2)Man(a1-6)]Man(b1-4)GlcNAc(b1-4)GlcNAc
# How it was run: as §1
# [31] = target: Gal(b1-3)GlcNAc(b1-2)Man(a1-3)[Gal(b1-3)GlcNAc(b1-2)Man(a1-6)]Man(b1-4)GlcNAc(b1-4)[Fuc(a1-6)]GlcNAc
# How it was run: as §1
# [32] = target: Gal(b1-3)GlcNAc(b1-2)Man(a1-3)[GlcNAc(b1-4)][Gal(b1-3)GlcNAc(b1-2)Man(a1-6)]Man(b1-4)GlcNAc(b1-4)GlcNAc
# How it was run: as §1
# [33] = target: Gal(b1-3)GlcNAc(b1-2)[Gal(b1-3)GlcNAc(b1-6)]Man(a1-6)[Gal(b1-3)GlcNAc(b1-2)Man(a1-3)]Man(b1-4)GlcNAc(b1-4)GlcNAc
# How it was run: as §1
# [34] = target: Gal(b1-3)GlcNAc(b1-3)Gal(b1-3)GlcNAc
# How it was run: as §1
# [35] = target: Gal(b1-3)GlcNAc(b1-3)Gal(b1-4)Glc
# How it was run: as §1
# [36] = target: Gal(b1-3)GlcNAc(b1-3)Gal(b1-4)GlcNAc
# How it was run: as §1
# [37] = target: Gal(b1-3)GlcNAc(b1-3)Gal(b1-4)GlcNAc(b1-2)Man(a1-3)[Gal(b1-3)GlcNAc(b1-3)Gal(b1-4)GlcNAc(b1-2)Man(a1-6)]Man(b1-4)GlcNAc(b1-4)GlcNAc
# How it was run: as §1
# [38] = target: Gal(b1-3)GlcNAc(b1-3)Gal(b1-4)GlcNAc(b1-2)[Gal(b1-3)GlcNAc(b1-3)Gal(b1-4)GlcNAc(b1-6)]Man(a1-6)[Gal(b1-3)GlcNAc(b1-3)Gal(b1-4)GlcNAc(b1-2)Man(a1-3)]Man(b1-4)GlcNAc(b1-4)[Fuc(a1-6)]GlcNAc
# How it was run: as §1
# [39] = target: Gal(b1-3)GlcNAc(b1-3)Gal(b1-4)GlcNAc(b1-3)Gal(b1-4)GlcNAc(b1-2)[Gal(b1-3)GlcNAc(b1-3)Gal(b1-4)GlcNAc(b1-3)Gal(b1-4)GlcNAc(b1-6)]Man(a1-6)[Gal(b1-3)GlcNAc(b1-3)Gal(b1-4)GlcNAc(b1-3)Gal(b1-4)GlcNAc(b1-2)Man(a1-3)]Man(b1-4)GlcNAc(b1-4)[Fuc(a1-6)]GlcNAc
# How it was run: as §1
# [40] = target: Gal(b1-3)GlcNAc(b1-3)Gal(b1-4)GlcNAc(b1-6)[Gal(b1-3)GlcNAc(b1-3)]Gal(b1-4)Glc
# How it was run: as §1
# [41] = target: Gal(b1-3)GlcNAc(b1-3)Gal(b1-4)[Fuc(a1-3)]GlcNAc
# How it was run: as §1
# [42] = target: Gal(b1-3)GlcNAc(b1-3)Gal(b1-4)[Fuc(a1-3)]GlcNAc(b1-6)[Gal(b1-3)GlcNAc(b1-3)]Gal(b1-4)Glc
# How it was run: as §1
# [43] = target: Gal(b1-3)GlcNAc(b1-3)GalNAc
# How it was run: as §1
# [44] = target: Gal(b1-3)GlcNAc(b1-6)Gal(b1-4)GlcNAc
# How it was run: as §1
# [45] = target: Gal(b1-3)GlcNAc(b1-6)GalNAc
# How it was run: as §1
binder,measurement,setting,value
PX15642A-pgi-501-20-501 (Parabacteroides gingivalis) (protein) CELDRDPEGKDFQQPYTSFVQTKQNRDGLYALLRNTENPRMHFYQELQSDMYCTTITDGNSLAPFVNWDLGILNDHGRADEDEVSGIAGYYFVYNRLNQQANAFVNNTEAALQNQVYKNSTEIANAKSFLAEGKVLQALAIWRLMDRFSFHESVTEVNSGAKDLGVILLKEYNPGYIGPRATKAQCYDYILSRLSEAIEVLPENRESVLYVSRDYAYALRARIYLALGEYGKAAADAKMVVDKYPLIGAADASEFENIYRSDANNPEIIFRGFASATLGSFTATTLNGAAPAGKDIKYNPSAVPFQWVVDLYENEDFRKSVYIAKVVKKDKGYLVNKFLEDKAYRDVQDKPNLKVGARYFSVAEVYLILVESALQTGDTPTAEKYLKALSKARGAEVSVVNMEALQAERTRELIGEGSRLRDMVRWSIPNNHDAFETQPGLEGFANTTPLKAQAPVGFYAYTWEFPQRDRQTNPQLIKNWPI,glycan array binding signal (z-score),[1],0.003
same,glycan array binding signal (z-score),[2],-0.319
same,glycan array binding signal (z-score),[3],0.023
same,glycan array binding signal (z-score),[4],0.185
same,glycan array binding signal (z-score),[5],-1.03
same,glycan array binding signal (z-score),[6],1.48
same,glycan array binding signal (z-score),[7],-0.248
same,glycan array binding signal (z-score),[8],6.32
same,glycan array binding signal (z-score),[9],0.218
same,glycan array binding signal (z-score),[10],-0.455
same,glycan array binding signal (z-score),[11],0.206
same,glycan array binding signal (z-score),[12],0.38
same,glycan array binding signal (z-score),[13],-1.13
same,glycan array binding signal (z-score),[14],-0.317
same,glycan array binding signal (z-score),[15],-0.727
same,glycan array binding signal (z-score),[16],-0.367
same,glycan array binding signal (z-score),[17],0.322
same,glycan array binding signal (z-score),[18],-0.269
same,glycan array binding signal (z-score),[19],-0.163
same,glycan array binding signal (z-score),[20],1.53
same,glycan array binding signal (z-score),[21],-1.14
same,glycan array binding signal (z-score),[22],-0.725
same,glycan array binding signal (z-score),[23],0.839
same,glycan array binding signal (z-score),[24],0.251
same,glycan array binding signal (z-score),[25],0.15
same,glycan array binding signal (z-score),[26],-0.186
same,glycan array binding signal (z-score),[27],-0.472
same,glycan array binding signal (z-score),[28],-0.002
same,glycan array binding signal (z-score),[29],-0.14
same,glycan array binding signal (z-score),[30],0.32
same,glycan array binding signal (z-score),[31],0.164
same,glycan array binding signal (z-score),[32],1.96
same,glycan array binding signal (z-score),[33],0.007
same,glycan array binding signal (z-score),[34],0.332
same,glycan array binding signal (z-score),[35],-0.14
same,glycan array binding signal (z-score),[36],-0.711
same,glycan array binding signal (z-score),[37],-0.156
same,glycan array binding signal (z-score),[38],0.168
same,glycan array binding signal (z-score),[39],0.763
same,glycan array binding signal (z-score),[40],-0.658
same,glycan array binding signal (z-score),[41],0.782
same,glycan array binding signal (z-score),[42],0.663
same,glycan array binding signal (z-score),[43],-0.201
same,glycan array binding signal (z-score),[44],-1.06
same,glycan array binding signal (z-score),[45],-0.003

# Part of the list above, with bars between the fields.
binder | measurement | setting | value
PX15642A-pgi-501-20-501 (Parabacteroides gingivalis) (protein) CELDRDPEGKDFQQPYTSFVQTKQNRDGLYALLRNTENPRMHFYQELQSDMYCTTITDGNSLAPFVNWDLGILNDHGRADEDEVSGIAGYYFVYNRLNQQANAFVNNTEAALQNQVYKNSTEIANAKSFLAEGKVLQALAIWRLMDRFSFHESVTEVNSGAKDLGVILLKEYNPGYIGPRATKAQCYDYILSRLSEAIEVLPENRESVLYVSRDYAYALRARIYLALGEYGKAAADAKMVVDKYPLIGAADASEFENIYRSDANNPEIIFRGFASATLGSFTATTLNGAAPAGKDIKYNPSAVPFQWVVDLYENEDFRKSVYIAKVVKKDKGYLVNKFLEDKAYRDVQDKPNLKVGARYFSVAEVYLILVESALQTGDTPTAEKYLKALSKARGAEVSVVNMEALQAERTRELIGEGSRLRDMVRWSIPNNHDAFETQPGLEGFANTTPLKAQAPVGFYAYTWEFPQRDRQTNPQLIKNWPI | glycan array binding signal (z-score) | [10] | -0.455
same | glycan array binding signal (z-score) | [11] | 0.206
same | glycan array binding signal (z-score) | [12] | 0.38

# Reference: the supplement of paper PMC8728848
